The target in this experiment is Nuclear distribution gene C (NudC), endogenous in HeLa cells (human (endogenous in HeLa)) (UniProt Q9Y266). Kind of experiment: affinity purification with mass spectrometry; HeLa cell lysates incubated with anti-NudC antibodies; co-precipitated proteins digested with trypsin, LC-MS/MS.

By UniProt entry, the sequences of proteins in these tests, tags left out.
UniProt Q9Y266: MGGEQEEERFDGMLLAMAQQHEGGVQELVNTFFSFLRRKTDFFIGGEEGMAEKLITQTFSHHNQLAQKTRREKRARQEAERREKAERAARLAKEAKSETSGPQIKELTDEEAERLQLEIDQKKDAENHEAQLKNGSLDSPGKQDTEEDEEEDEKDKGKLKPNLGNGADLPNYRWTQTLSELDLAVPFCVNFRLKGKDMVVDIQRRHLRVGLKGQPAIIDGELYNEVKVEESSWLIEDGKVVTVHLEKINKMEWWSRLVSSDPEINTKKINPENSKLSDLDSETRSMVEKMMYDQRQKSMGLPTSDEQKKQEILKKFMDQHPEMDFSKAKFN
UniProt P21333: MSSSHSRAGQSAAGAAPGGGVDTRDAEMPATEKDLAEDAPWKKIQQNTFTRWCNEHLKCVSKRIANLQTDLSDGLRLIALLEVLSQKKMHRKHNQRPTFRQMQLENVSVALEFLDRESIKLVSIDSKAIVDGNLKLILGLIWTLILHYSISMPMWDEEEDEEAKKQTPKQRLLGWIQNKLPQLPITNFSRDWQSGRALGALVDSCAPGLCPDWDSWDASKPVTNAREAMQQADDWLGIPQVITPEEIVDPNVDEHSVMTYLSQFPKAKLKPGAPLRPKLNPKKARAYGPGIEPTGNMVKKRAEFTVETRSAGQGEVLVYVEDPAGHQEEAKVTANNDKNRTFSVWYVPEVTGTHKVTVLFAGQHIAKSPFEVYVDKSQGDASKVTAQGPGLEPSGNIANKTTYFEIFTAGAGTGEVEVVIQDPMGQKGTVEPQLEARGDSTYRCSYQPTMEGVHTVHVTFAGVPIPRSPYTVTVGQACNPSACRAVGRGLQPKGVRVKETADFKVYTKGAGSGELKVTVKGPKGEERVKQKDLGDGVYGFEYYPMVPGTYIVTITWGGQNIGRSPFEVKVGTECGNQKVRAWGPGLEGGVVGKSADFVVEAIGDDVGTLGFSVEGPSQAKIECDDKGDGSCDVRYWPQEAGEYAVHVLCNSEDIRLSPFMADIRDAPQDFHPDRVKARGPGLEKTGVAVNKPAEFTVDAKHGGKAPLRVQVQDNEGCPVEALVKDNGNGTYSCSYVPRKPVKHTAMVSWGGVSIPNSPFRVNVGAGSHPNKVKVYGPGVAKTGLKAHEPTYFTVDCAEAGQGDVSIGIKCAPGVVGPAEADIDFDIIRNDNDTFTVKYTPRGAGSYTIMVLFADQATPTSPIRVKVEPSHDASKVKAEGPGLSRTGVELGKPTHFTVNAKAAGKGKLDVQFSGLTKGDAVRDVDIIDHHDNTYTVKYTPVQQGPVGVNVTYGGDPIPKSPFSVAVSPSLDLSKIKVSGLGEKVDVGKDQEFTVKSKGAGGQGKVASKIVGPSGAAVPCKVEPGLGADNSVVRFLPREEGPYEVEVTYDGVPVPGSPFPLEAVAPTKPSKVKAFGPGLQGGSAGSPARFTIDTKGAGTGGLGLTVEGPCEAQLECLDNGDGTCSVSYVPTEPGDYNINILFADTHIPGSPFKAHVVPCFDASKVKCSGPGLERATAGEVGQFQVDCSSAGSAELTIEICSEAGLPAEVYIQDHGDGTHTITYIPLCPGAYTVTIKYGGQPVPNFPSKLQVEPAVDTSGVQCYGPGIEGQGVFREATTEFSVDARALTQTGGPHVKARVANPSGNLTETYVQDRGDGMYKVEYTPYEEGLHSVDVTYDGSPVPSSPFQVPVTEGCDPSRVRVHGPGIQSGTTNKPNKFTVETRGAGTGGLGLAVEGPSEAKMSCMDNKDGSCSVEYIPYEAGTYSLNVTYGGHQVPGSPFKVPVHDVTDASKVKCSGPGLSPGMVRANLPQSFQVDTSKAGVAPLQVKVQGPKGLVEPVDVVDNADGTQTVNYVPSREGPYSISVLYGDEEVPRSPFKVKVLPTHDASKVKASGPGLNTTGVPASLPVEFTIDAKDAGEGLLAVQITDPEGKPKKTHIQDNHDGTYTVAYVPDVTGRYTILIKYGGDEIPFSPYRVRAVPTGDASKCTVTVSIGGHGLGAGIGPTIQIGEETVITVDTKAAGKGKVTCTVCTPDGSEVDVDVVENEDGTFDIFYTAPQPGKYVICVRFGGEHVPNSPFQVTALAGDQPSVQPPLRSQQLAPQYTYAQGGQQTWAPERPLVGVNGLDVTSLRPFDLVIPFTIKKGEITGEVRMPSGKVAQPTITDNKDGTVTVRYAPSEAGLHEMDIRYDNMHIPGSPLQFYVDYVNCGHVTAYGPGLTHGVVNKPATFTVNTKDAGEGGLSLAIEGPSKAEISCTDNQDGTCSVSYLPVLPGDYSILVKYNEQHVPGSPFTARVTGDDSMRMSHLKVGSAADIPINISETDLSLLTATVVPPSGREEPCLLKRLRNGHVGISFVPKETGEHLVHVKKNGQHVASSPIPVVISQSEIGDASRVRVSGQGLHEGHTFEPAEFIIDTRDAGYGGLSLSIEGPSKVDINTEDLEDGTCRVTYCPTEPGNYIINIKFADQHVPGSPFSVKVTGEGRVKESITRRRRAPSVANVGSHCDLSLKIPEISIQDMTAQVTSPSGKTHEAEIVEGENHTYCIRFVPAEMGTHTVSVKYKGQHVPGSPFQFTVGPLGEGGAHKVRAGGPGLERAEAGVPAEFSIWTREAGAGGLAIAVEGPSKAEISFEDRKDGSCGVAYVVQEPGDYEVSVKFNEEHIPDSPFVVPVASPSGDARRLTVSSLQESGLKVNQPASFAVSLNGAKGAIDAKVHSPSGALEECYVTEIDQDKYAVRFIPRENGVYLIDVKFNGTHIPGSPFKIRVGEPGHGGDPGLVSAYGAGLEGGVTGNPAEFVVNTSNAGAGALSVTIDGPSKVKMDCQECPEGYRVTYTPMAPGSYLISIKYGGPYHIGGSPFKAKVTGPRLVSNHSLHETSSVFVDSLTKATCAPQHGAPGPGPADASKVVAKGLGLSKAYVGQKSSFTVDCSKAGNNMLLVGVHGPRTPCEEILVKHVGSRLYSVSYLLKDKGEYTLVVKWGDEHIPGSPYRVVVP

No constants are given. Whether binding was seen depends on the method and setting. In cells and extracts the contact can be indirect. Here binding means that the protein was enriched with, or labelled near, the bait; the list need not be complete.

For “Filamin A, endogenous in HeLa cells (from UniProt P21333 1-2647)”, the binding entry was “binds”.

The values above are taken from PMC8273881.
